{"source": "paper PMC5506036", "about": "“SmMYB36, a Novel R2R3-MYB Transcription Factor, Enhances Tanshinone Accumulation and Decreases Phenolic Acid Content in Salvia miltiorrhiza Hairy Roots”", "biological_target": "T1, SmMYB36 (Salvia miltiorrhiza) (UniProt A0A059PRJ2)", "T1 sequence (looked up, limits assumed)": "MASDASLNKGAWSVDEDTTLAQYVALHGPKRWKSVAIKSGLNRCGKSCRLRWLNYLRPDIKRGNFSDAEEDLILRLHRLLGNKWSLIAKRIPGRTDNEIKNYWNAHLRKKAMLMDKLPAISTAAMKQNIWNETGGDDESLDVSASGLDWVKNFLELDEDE", "assay": "EMSA", "details": "Invitrogen EMSA kit, probe:protein mass ratio 1:15, 10 µL, protein eluted in 50 mM NaH2PO4, 300 mM NaCl, 250 mM imidazole pH 8.0, binding buffer and temperature not given, recombinant protein, protein details: His (pET32a fusion)", "note": "For at least one entry, the source does not settle the construct or the ends of the probe. Negatives hold for the conditions tested. At least one verdict rests on a figure or table, not on a statement of the authors. Where a protein sequence is shown, tags need not be part of it."}
{"sequence": "AGAAAGC (double strand) [7CK control]", "values": [{"measurement": "binding result", "setting": "letters put together from the description", "value": "no binding"}]}
{"sequence": "AGTTTTCTTGAA (double strand) [12CK control]", "values": [{"measurement": "binding result", "value": "no binding"}]}
